{"source": "PubChem BioAssay AID1259281 (Sanger Institute, 2017)", "screen": "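Find knock-downs that kill colorectal cancer cells alone or strengthen targeted drugs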 (primary screen)", "cell system": "human COLO678 colorectal cancer cell line", "reagent": "siRNA pool against human genes", "challenge": "anchor drugs at fixed doses: BYL719 1 µM, cetuximab 5 µg/ml or trametinib 10 nM; DMSO vehicle for the siRNA-alone arm", "measured": "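Cell viability compared with non-targeting pool wells, averaged over replicates; knock-down-alone effect also as robust z-score; synergy scores set knock-down plus drug against expected joint effect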", "direction": "robust z-score, siRNA alone: higher = more viable cells; strongly negative means essential; viability, siRNA alone: higher = more surviving cells", "units": "viability, siRNA alone in fraction of control", "call rule": "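Essential (knock-down alone) when the siRNA-alone robust z-score is below -3; otherwise no change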", "meaning of the calls": "active = essential (knock-down alone); inactive = no change", "note": "This is a random part of 794 deposited reagents. 22 of them (2.8%) were called active. 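Calls rest on knock-down alone only; drug synergy scores play no part in them.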 Unmarked entries are inactive. Viability is capped at 1. Further read-outs or replicates are left out here. The record does not give: the amount of reagent, the time to read-out."}
{"target gene": "RTN4", "robust z-score, siRNA alone": 0.473, "viability, siRNA alone": 1}
{"target gene": "ATM", "robust z-score, siRNA alone": 0.473, "viability, siRNA alone": 1}
{"target gene": "CALM1", "robust z-score, siRNA alone": 0.473, "viability, siRNA alone": 1}
{"target gene": "NTRK2", "robust z-score, siRNA alone": -2.36, "viability, siRNA alone": 0.91}
{"target gene": "TPD52L3", "robust z-score, siRNA alone": 0.473, "viability, siRNA alone": 1}
{"target gene": "CHD9", "robust z-score, siRNA alone": 0.473, "viability, siRNA alone": 1}
{"target gene": "STYK1", "robust z-score, siRNA alone": 0.473, "viability, siRNA alone": 1}
{"target gene": "PIKFYVE", "robust z-score, siRNA alone": 0.248, "viability, siRNA alone": 0.993}
{"target gene": "ADCK1", "robust z-score, siRNA alone": 0.473, "viability, siRNA alone": 1}
{"target gene": "NEK1", "robust z-score, siRNA alone": 0.473, "viability, siRNA alone": 1}
{"target gene": "DCLK1", "robust z-score, siRNA alone": -0.424, "viability, siRNA alone": 0.971}
{"target gene": "CNOT1", "robust z-score, siRNA alone": "-3.69 (active)", "viability, siRNA alone": 0.868}
{"target gene": "CDK9", "robust z-score, siRNA alone": 0.473, "viability, siRNA alone": 1}
{"target gene": "SMAD2", "robust z-score, siRNA alone": 0.473, "viability, siRNA alone": 1}
{"target gene": "SCYL3", "robust z-score, siRNA alone": 0.473, "viability, siRNA alone": 1}
{"target gene": "SRGAP3", "robust z-score, siRNA alone": 0.473, "viability, siRNA alone": 1}
{"target gene": "BRD3", "robust z-score, siRNA alone": 0.473, "viability, siRNA alone": 1}
{"target gene": "PIK3R4", "robust z-score, siRNA alone": 0.473, "viability, siRNA alone": 1}
{"target gene": "EFNA4", "robust z-score, siRNA alone": 0.473, "viability, siRNA alone": 1}
{"target gene": "CDKL4", "robust z-score, siRNA alone": 0.473, "viability, siRNA alone": 1}
{"target gene": "TSSK3", "robust z-score, siRNA alone": 0.473, "viability, siRNA alone": 1}
{"target gene": "SMAD4", "robust z-score, siRNA alone": 0.473, "viability, siRNA alone": 1}
{"target gene": "MAP3K6", "robust z-score, siRNA alone": 0.27, "viability, siRNA alone": 0.994}
{"target gene": "IRAK3", "robust z-score, siRNA alone": -0.245, "viability, siRNA alone": 0.977}

The list goes on; the last 4 above are carried over.
{"target gene": "TSSK3", "robust z-score, siRNA alone": 0.473, "viability, siRNA alone": 1}
{"target gene": "SMAD4", "robust z-score, siRNA alone": 0.473, "viability, siRNA alone": 1}
{"target gene": "MAP3K6", "robust z-score, siRNA alone": 0.27, "viability, siRNA alone": 0.994}
{"target gene": "IRAK3", "robust z-score, siRNA alone": -0.245, "viability, siRNA alone": 0.977}
{"target gene": "BMAL1", "robust z-score, siRNA alone": "-4.34 (active)", "viability, siRNA alone": 0.847}
{"target gene": "ERBB3", "robust z-score, siRNA alone": -1.22, "viability, siRNA alone": 0.946}
{"target gene": "AKT1", "robust z-score, siRNA alone": 0.473, "viability, siRNA alone": 1}
{"target gene": "ADCK5", "robust z-score, siRNA alone": 0.473, "viability, siRNA alone": 1}
{"target gene": "LCK", "robust z-score, siRNA alone": -1.35, "viability, siRNA alone": 0.942}
{"target gene": "BRD4", "robust z-score, siRNA alone": 0.473, "viability, siRNA alone": 1}
{"target gene": "ABL2", "robust z-score, siRNA alone": -2.53, "viability, siRNA alone": 0.905}
{"target gene": "CAMK2G", "robust z-score, siRNA alone": 0.473, "viability, siRNA alone": 1}
{"target gene": "CSF1R", "robust z-score, siRNA alone": -2.3, "viability, siRNA alone": 0.912}
{"target gene": "PHKG1", "robust z-score, siRNA alone": 0.473, "viability, siRNA alone": 1}
{"target gene": "CDKL3", "robust z-score, siRNA alone": 0.473, "viability, siRNA alone": 1}
{"target gene": "CDK13", "robust z-score, siRNA alone": 0.473, "viability, siRNA alone": 1}
